Values of other authors as cited in publication PMC8401933 (Molecules, 2021).

Details: cited from earlier work

Row | Compound | promiscuity score
1 | CN(C)c1nc2c(Br)c(Br)c(Br)c(Br)c2[nH]1 [DMAT, 2-dimethylamino-4,5,6,7-tetrabromo-1H-benzimidazole] | 48.60%
2 | O=C1c2ccc(O)c(O)c2C(=O)c2c(O)ccc(O)c21 [quinalizarin, 1,2,5,8-tetrahydroxyanthraquinone] | 9.47%
